In article PMC4398349:
Results are given in words; binding and its absence hold for the method and conditions named. In cells and extracts the contact can be indirect. Some entries that bind do so weakly or less than the wild type.

Amino acid sequences for entries named in this document (tags omitted). Residues count along the entry.
UniProt Q59RR0, residues 55-783: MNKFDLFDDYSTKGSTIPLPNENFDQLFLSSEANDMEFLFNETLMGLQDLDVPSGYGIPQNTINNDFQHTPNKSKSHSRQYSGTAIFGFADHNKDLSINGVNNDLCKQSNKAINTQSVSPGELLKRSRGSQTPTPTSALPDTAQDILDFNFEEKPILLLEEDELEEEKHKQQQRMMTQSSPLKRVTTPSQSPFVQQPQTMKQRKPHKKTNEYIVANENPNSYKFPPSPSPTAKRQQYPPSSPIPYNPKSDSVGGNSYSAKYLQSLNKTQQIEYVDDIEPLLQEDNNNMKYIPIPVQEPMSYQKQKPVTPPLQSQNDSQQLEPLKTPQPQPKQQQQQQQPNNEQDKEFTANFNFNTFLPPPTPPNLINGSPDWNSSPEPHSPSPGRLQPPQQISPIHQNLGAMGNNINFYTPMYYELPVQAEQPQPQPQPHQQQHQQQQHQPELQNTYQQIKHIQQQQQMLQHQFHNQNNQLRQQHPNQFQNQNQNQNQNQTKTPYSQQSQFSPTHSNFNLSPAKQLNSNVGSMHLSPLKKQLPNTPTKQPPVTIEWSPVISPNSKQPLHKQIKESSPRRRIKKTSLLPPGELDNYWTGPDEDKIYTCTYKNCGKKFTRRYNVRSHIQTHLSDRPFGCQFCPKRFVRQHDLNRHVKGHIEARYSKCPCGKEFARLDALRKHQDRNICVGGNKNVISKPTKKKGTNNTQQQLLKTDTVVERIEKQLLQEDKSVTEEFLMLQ
UniProt Q5AP53: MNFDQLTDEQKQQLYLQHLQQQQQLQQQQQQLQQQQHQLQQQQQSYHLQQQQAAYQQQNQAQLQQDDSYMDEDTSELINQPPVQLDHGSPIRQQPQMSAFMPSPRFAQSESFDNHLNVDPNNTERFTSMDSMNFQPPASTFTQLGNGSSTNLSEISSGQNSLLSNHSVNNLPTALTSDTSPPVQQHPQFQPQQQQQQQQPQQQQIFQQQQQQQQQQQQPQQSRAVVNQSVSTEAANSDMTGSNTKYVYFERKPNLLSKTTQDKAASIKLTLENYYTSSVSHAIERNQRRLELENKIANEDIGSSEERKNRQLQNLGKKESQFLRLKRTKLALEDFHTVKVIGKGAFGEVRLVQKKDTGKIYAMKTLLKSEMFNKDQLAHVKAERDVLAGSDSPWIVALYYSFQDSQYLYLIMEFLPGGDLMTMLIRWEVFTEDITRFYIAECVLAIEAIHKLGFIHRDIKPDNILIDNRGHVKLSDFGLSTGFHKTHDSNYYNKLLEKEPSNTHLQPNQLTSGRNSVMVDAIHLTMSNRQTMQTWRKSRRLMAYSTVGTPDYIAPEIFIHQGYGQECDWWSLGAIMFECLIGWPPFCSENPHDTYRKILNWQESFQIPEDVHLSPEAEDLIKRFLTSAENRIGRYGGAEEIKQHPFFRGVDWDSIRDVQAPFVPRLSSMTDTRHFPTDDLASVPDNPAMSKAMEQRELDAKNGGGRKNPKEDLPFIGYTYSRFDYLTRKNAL

Target: Ace2S-HA (short form of C. albicans Ace2, translation from methionine-55, under the MET3 promoter) (Candida albicans) (UniProt Q59RR0)
Assay: co-IP; anti-HA μMACS precipitation of HA-tagged Ace2 forms from yeast cell extracts; lysis buffer HEPES 50 mM, 70 mM potassium acetate, 5 mM magnesium acetate, 1% Triton X-100, 10% glycerol; blots with anti-HA and anti-myc

Cbk1-myc (C. albicans NDR kinase Cbk1 tagged with c-myc at the C-terminus) (from UniProt Q5AP53 1-732) (enzyme)
binding: binds
